In paper PMC8748766, “The catalytic activity of TCPTP is auto-regulated by its intrinsically disordered tail and activated by Integrin alpha-1” (Nature Communications, 2022):

B1: TCPTPCAT: TCPTP catalytic domain, residues 1–288, 1–302 (NMR) or 1–314 (activity, SAXS) (protein, UniProt P17706 1-314, looked up, fragment)
chain: MPTTIEREFEELDTQRRWQPLYLEIRNESHDYPHRVAKFPENRNRNRYRDVSPYDHSRVKLQNAENDYINASLVDIEEAQRSYILTQGPLPNTCCHFWLMVWQQKTKAVVMLNRIVEKESVKCAQYWPTDDQEMLFKETGFSVKLLSEDVKSYYTVHLLQLENINSGETRTISHFHYTTWPDFGVPESPASFLNFLFKVRESGSLNPDHGPAVIHCSAGIGRSGTFSLVDTCLVLMEKGDDINIKQVLLNMRKYRMGLIQTPDQLRFSYMAIIEGAKCIKGDSSIQKRWKELSKEDLSPAFDHSPNKIMTEKYN
modifications: catalytic domain
B2: TCPTP: T-Cell Protein Tyrosine Phosphatase, TC45 isoform, full-length residues 1–387 (protein)
chain: MPTTIEREFEELDTQRRWQPLYLEIRNESHDYPHRVAKFPENRNRNRYRDVSPYDHSRVKLQNAENDYINASLVDIEEAQRSYILTQGPLPNTCCHFWLMVWQQKTKAVVMLNRIVEKESVKCAQYWPTDDQEMLFKETGFSVKLLSEDVKSYYTVHLLQLENINSGETRTISHFHYTTWPDFGVPESPASFLNFLFKVRESGSLNPDHGPAVIHCSAGIGRSGTFSLVDTCLVLMEKGDDINIKQVLLNMRKYRMGLIQTPDQLRFSYMAIIEGAKCIKGDSSIQKRWKELSKEDLSPAFDHSPNKIMTEKYNGNRIGLEEEKLTGDRCTGLSSKMQDTMEENSESALRKRIREDRKATTAQKVQQMKQRLNENERKRKRPRLTDT
modifications: left off: His6, N-terminal, cleaved

Test: SAXS (inline HPLC-SAXS)
Set-up: species or system Homo sapience
Details: TCPTPCAT residues 1–314; for Rg (from Guinier): 50 mM Tris-HCl pH 7.4, 50 mM NaCl, 5% Glycerol, 1 mM TCEP, 288 K; for Dmax / Porod Volume / Rg [from P(r)] / Volume of correlation (Vc): pH 7.4, 288 K

Molecule | Rg (from Guinier) [Å] | Dmax [Å] | Porod Volume [Å3] | Rg [from P(r)] [Å] | Volume of correlation (Vc)
B1 | 27.2 ± 0.1 | 105 | 69900 | 26.6 ± 0.4 | 364
B2 | 37.3 ± 0.1 | 165 | 98700 | 38.5 ± 0.9 | 475
